Experimental data as given in PubChem BioAssay AID540303 (National Center for Advancing Translational Sciences (NCATS), 2011).
About 1,000 (0.3%) of roughly 330,000 compounds were called active. The shares of active, inactive and inconclusive entries below differ from those in the screen. The call rests on the fitted dose curve; in most records, active means well fitted inhibition curve with a large enough effect; inconclusive means small, poorly fitted or top-dose-only effect; inactive means no such curve, though single readings can be large or run the other way; tested in mouse RAW 264.7 cells. A potency beside an inconclusive call is a rough fit, not a confirmed value.

Assay: qHTS for Inhibitors of Cell Surface uPA Generation; further: nearly all actives have a fitted effect of over 55% in size
Settings: cell surface uPA generation assay; series mostly up to 38.3 µM; activity change, negative = inhibition: at the top concentration
Procedure, shortened: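 Murine RAW 264.7 cells are treated for 24 h with compound up to 38.3 uM final. Cell ATP, measured by ATP-Lite, remains high if blocking the uPA cascade prevents LF from reaching the cytoplasm.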
On the % scale 0 is the no-effect control and ±100 the full control effect; potency means the concentration at half of the fitted maximal effect.

Row | Structure (SMILES) | Potency | activity change, negative = inhibition
1 | COc1ccc(-c2nc3c4ccccc4ccn3c2CN2CCCCC2)cc1OC | inconclusive: 2 µM [inhibitor, full curve, poor fit] | 
2 | Cc1ccc(CN2C(=O)C(Cc3ccccc3)Nc3ncnc(N4CCN(c5ccccc5)CC4)c32)cc1 (centres undefined) | inconclusive: 12.6 µM [inhibitor, single point] | 
3 | Cc1nc(NCc2ccccc2)[nH]c(=O)c1CCC(C)C |  | inactive: 12.7%
4 | O=C(Nc1nnc(-c2ccccc2)s1)c1ccccc1F | inconclusive: 7.94 µM [inhibitor, single point] | 
5 | CCC(=O)Nc1cccc(C(=O)/C=C/c2ccc(F)cc2)c1 | inconclusive: 8.91 µM [inhibitor, single point] | 
6 | O=[N+]([O-])c1ccc2nc(/C=C/c3ccc(Cl)cc3)[nH]c2c1 | inconclusive: 10 µM [inhibitor, single point] | 
7 | O=C(c1ccc(NS(=O)(=O)c2cccc([N+](=O)[O-])c2)cc1)N1CCN(C(=O)c2ccco2)CC1 |  | inactive: -8.48%
8 | O=C(CNC(=O)c1cc(-c2ccccc2)nn1-c1ccccc1)Nc1ccccc1Br | inconclusive: 3.55 µM [inhibitor, single point] | 
9 | CCn1c(SCc2ccc(C#N)cc2)nnc1-c1cccc(Cl)c1 |  | inactive: -6.01%
10 | CCC(C)NC(=O)Cc1c(C)c2cc3c(cc2oc1=O)OC(C)(C)CC3 (centres undefined) |  | inactive: -1.53%
11 | COc1cc(Nc2nc3c(N)cc(C(F)(F)F)cc3nc2-c2ccccc2)cc(OC)c1OC |  | inactive: 9.77%
12 | CC(C)C(=O)NC(C)C(c1cccs1)N1CCN(c2ccccc2)CC1 (centres undefined) |  | inactive: 8.17%
13 | CCN1CCN(C(=O)c2ccccc2N(Cc2ccccc2)S(=O)(=O)c2ccc(OC)cc2)CC1 | inconclusive: 14.1 µM [inhibitor, partial curve, poor fit] | 
14 | Cc1cc(NC(=O)CON=C(N)CC(=O)Nc2ccccc2Cl)ccc1Br |  | inactive: 3.27%
15 | O=C(Nc1ccccc1N1CCCC1)c1ccc([N+](=O)[O-])o1 | inconclusive: 3.98 µM [inhibitor, partial curve, poor fit] | 
16 | CC1CCN(c2nc3ccc(C(=O)NCCCN4CCCCC4C)cc3s2)CC1 (centres undefined) | active: 11.2 µM | 
17 | CC1CCc2c(C(=O)Nc3ccc(OC(F)(F)F)cc3)csc2C1 (centres undefined) |  | inactive: -0.466%
18 | COc1cccc(CN2CCCC(C(=O)Nc3ccc(-c4cscn4)cc3)C2)c1 (centres undefined) | active: 7.08 µM | 
19 | COc1ccccc1C(=O)Nn1c(-c2cccs2)nc2ccccc2c1=O | inconclusive: 1.26 µM [inhibitor, partial curve, poor fit] | 
20 | COc1ccc(-c2cc(=O)oc3c(C)c(OC(=O)c4cccs4)ccc23)cc1 | inconclusive: 7.94 µM [inhibitor, partial curve, poor fit] | 
21 | CCOC(=O)c1ccc(N=c2sc(C(=O)OC)cc(=O)n2Cc2ccco2)cc1 | active: 6.31 µM | 
22 | Cn1c(CCN2CCCCC2)nc2cc(NC(=O)COc3ccc(Cl)cc3)ccc21 | inconclusive: 8.91 µM [inhibitor, single point] | 
23 | CC(=O)Nc1ccc(S(=O)(=O)NCc2cc(=O)n(C)c(=O)n2C)cc1 | inconclusive: 12.6 µM [inhibitor, single point] | 

Row | Structure (SMILES) | Potency | activity change, negative = inhibition
24 | COc1cc(OC)cc(C(=O)NNC(=O)c2ccc3ccccc3n2)c1 | inconclusive: 12.6 µM [inhibitor, single point] | 
25 | Cc1nc(Cl)cc(N/N=C/c2ccc(O)cc2)n1 | inconclusive: 10 µM [inhibitor, partial curve] | 
26 | CCOc1ccccc1N1CCN(C(=O)c2ccccc2OCc2c(C)noc2C)CC1 | inconclusive: 3.16 µM [inhibitor, single point] | 
27 | CC1CCCCN1CCNC(=O)c1ccc2c(c1)N(Cc1ccccc1F)C(=O)c1ccccc1S2=O (centres undefined) | inconclusive: 12.6 µM [inhibitor, partial curve, poor fit] | 
28 | Cc1ccc(C)c(N2CCN(CCCNC(=O)Cn3cc4c(n3)CCCCC4)CC2)c1 | inconclusive: 10 µM [inhibitor, partial curve, poor fit] | 
29 | Cc1ccc(C(=O)N/N=C\c2ccccc2[N+](=O)[O-])cn1 | inconclusive: 4.47 µM [inhibitor, partial curve] | 
30 | O=C(N/N=C/c1cccnc1)c1ccc2ccccc2c1O | inconclusive: 10 µM [inhibitor, single point] | 
31 | CC(C)=CCc1c(O)ccc2c1OC(c1ccc(O)c(O)c1)CC2=O (centres undefined) | inconclusive: 10 µM [inhibitor, partial curve] | 
32 | CN(CCOc1ccccc1)CC(=O)Nc1ccc(S(=O)(=O)N2CCCC2)cc1 |  | inactive: 22.4%
33 | CC(=O)NC(C)c1cc(Cl)c2cccnc2c1O (centres undefined) | inconclusive: 7.08 µM [inhibitor, partial curve, poor fit] | 
34 | Cc1cccc(-n2ncc3c(N4CCC(C)CC4)ncnc32)c1 | inconclusive: 7.94 µM [inhibitor, partial curve, poor fit] | 
35 | Cc1cccc2sc(NNC(=O)c3ccc(S(=O)(=O)N4CCCC(C)C4)cc3)nc12 (centres undefined) | active: 8.91 µM | 
36 | Cc1ccc(C)c(C(=O)Nc2c(C(N)=O)oc3ccccc23)c1 | inconclusive: 3.55 µM [inhibitor, partial curve, poor fit] | 
37 | O=C(Cc1ccc(N2CCNC2=O)cc1)N1CCCC(Nc2cccc(F)c2)C1 (centres undefined) | active: 1.41 µM | 
38 | CCN(CCCNS(=O)(=O)c1cc(-c2cc(C)no2)ccc1C)Cc1ccccc1 | inconclusive: 11.2 µM [inhibitor, partial curve, poor fit] | 
39 | COC1=CC(=O)C=C(OC)C1(O)CC(C)=O | inconclusive: 11.2 µM [inhibitor, partial curve] | 
40 | COCCOC(=O)C1=C(C)NC2=C(C(=O)CC(C)(C)C2)C1c1cccnc1 (centres undefined) |  | inactive: 4.58%
41 | Nc1nc2ccccc2n1C(=O)c1ccccc1 | active: 2.82 µM | 
42 | CCn1cc(C(=O)NCCCN2CCCC(C)C2)c(=O)c2cc(S(=O)(=O)N(C)C3CCCCC3)ccc21 (centres undefined) | inconclusive: 10 µM [inhibitor, single point] | 
43 | Oc1ccc(/C=N/NC(=S)Nc2cccnc2)cc1 | active: 3.98 µM | 
44 | Cc1ccc2oc(=O)c(/C=C(\O)c3ccccc3)nc2c1 | inconclusive: 4.47 µM [inhibitor, partial curve, poor fit] | 
45 | Cc1nc(SCc2nc3ccc(Cl)cc3[nH]2)c2oc3ccccc3c2n1 | inconclusive: 12.6 µM [inhibitor, single point] | 
46 | CCC[C@H](CN[C@@H](CNC)[C@H](C)CC)NCCc1cc(C(F)(F)F)cc(C(F)(F)F)c1 | inconclusive: 11.2 µM [inhibitor, single point] | 

Row | Structure (SMILES) | Potency | activity change, negative = inhibition
47 | CC1(C)CC2CC(C)(CN2c2ncnc3ccccc23)C1 (centres undefined) | inconclusive: 11.2 µM [inhibitor, partial curve, poor fit] | 
48 | Cc1nc(Nc2ccc(Cl)cc2Cl)sc1C(=O)Nc1ccccc1 |  | inactive: -0.419%
49 | Cn1cc(CNC(=O)C2CCC(=O)N(Cc3ccccc3F)C2)cn1 (centres undefined) | inconclusive: 2.82 µM [inhibitor, single point] | 
50 | O=C(O)c1cccc(S(=O)(=O)Nc2ccccc2N2CCOCC2)c1 |  | inactive: 16.8%
51 | O=C(Nc1c(Cl)ccc2nsnc12)c1ccc([N+](=O)[O-])o1 | inconclusive: 11.2 µM [inhibitor, single point] | 
52 | O=C(CSc1nc(=O)n2ccccc2n1)N1CCC(Cc2ccccc2)CC1 |  | inactive: -7.45%
53 | O=C(Cc1ccccc1)Nc1ncnc2c1C(c1ccccc1)c1c(ccc3ccccc13)O2 (centres undefined) | inconclusive: 28.2 µM [inhibitor, single point] | 
54 | Cn1cccc1C(=O)NC1CCCCC1 |  | inactive: -0.369%
55 | CCOc1ccccc1N1CCN(C(=O)c2ccc3[nH]c(C)c(C)c3c2)CC1 | active: 2.51 µM | 
56 | NS(=O)(=O)c1cc(C(=O)NCCOc2ccccc2)c(Cl)cc1Cl | inconclusive: 8.91 µM [inhibitor, partial curve, poor fit] | 
57 | O=C(COC(=O)CCN=C1NS(=O)(=O)c2ccccc21)NNC(=O)c1ccccc1 |  | inactive: 2.31%
58 | COc1ccc(-c2cc3cc(F)ccc3cn2)cc1 | inconclusive: 10 µM [inhibitor, partial curve, poor fit] | 
59 | CN(CC(=O)Nc1ccc(Cl)c(C(F)(F)F)c1)C(=O)c1ccc(S(=O)(=O)N2CCOCC2)cc1 | inconclusive: 2.82 µM [inhibitor, full curve, poor fit] | 
60 | Cc1ccc(CNC(=O)COC(=O)c2cc(=O)[nH]c3ccccc23)cc1 | inconclusive: 2.82 µM [inhibitor, full curve, poor fit] | 
61 | C(=C\c1ccccc1)/CNn1cnnc1 |  | inactive: -1.69%
62 | O=C(/C=C/c1ccccc1Cl)Nc1ccc2c(c1)C(=O)NC2=O | inconclusive: 2.82 µM [inhibitor, partial curve, poor fit] | 
63 | O=C(NNc1nc2ccc(Cl)cc2s1)c1cc(-c2cccs2)nc2ccccc12 | inconclusive: 28.2 µM [inhibitor, single point] | 
64 | O=C(NC1CC1)c1cc2ccccc2o1 | inconclusive: 1 µM [inhibitor, partial curve, poor fit] | 
65 | CCC(=O)Nc1nc2c(OC)ccc(OC)c2s1 |  | inactive: -9.87%
66 | NC(=O)c1cccc(-c2noc(-c3ccccc3F)n2)c1 | inconclusive: 10 µM [inhibitor, partial curve, poor fit] | 
67 | COc1ccc(S(=O)(=O)N2c3ccc(F)cc3CCC2C)cc1 (centres undefined) | inconclusive: 0.316 µM [inhibitor, full curve, poor fit] | 
68 | COc1ccc([N+](=O)[O-])cc1C(=O)C(=O)c1ccccc1 | inconclusive: 0.0025 µM [inhibitor, full curve, poor fit] | 
69 | CCOC(=O)N1CCN(S(=O)(=O)c2ccc(C(=O)NNc3nc4c(C)cc(C)cc4s3)cc2)CC1 | inconclusive: 12.6 µM [inhibitor, single point] | 

Taken from above:
Under activity change, negative = inhibition, CCC(C)NC(=O)Cc1c(C)c2cc3c(cc2oc1=O)OC(C)(C)CC3 (centres undefined) shows inactive: -1.53%
Under activity change, negative = inhibition, Cc1nc(Nc2ccc(Cl)cc2Cl)sc1C(=O)Nc1ccccc1 shows inactive: -0.419%
Under Potency, O=C(NC1CC1)c1cc2ccccc2o1 shows inconclusive: 1 µM [inhibitor, partial curve, poor fit]
